{"source": "ChEMBL document CHEMBL4513141", "about": "“CO-ADD screening of NIH (USA) - Clinical Collection” (2021)", "note": "Some of the results follow. Entries with a potency or affinity are not part of this list.", "data": [{"test_system": "Pseudomonas aeruginosa", "conditions": "Concentration 20 uM; ASSAY_TEST Inhibition of Bacterial Growth; detection method Absorption (OD600); MEDIA CAMHB; plate type 384well; NBS; CORNING #3640; time 18 hr", "units": {"Inhibition": "%"}, "values": [{"smiles": "CS(=O)(=O)c1ccc(-c2cc(Br)sc2-c2ccc(F)cc2)cc1", "note": "[DUP-697]", "Inhibition": 4.8}, {"smiles": "CCC(=O)O[C@]1(C(=O)SCF)[C@H](C)C[C@H]2[C@@H]3C[C@H](F)C4=CC(=O)C=C[C@]4(C)[C@@]3(F)[C@@H](O)C[C@@]21C", "note": "[FLUTICASONE PROPIONATE]", "Inhibition": 5.17}, {"smiles": "Cl.O=C(c1ccc(OCCN2CCCCC2)cc1)c1c(-c2ccc(O)cc2)sc2cc(O)ccc12", "note": "[RALOXIFENE HYDROCHLORIDE]", "Inhibition": 4.22}, {"smiles": "C[C@]12C=CC(=O)C=C1CC[C@@H]1[C@@H]2[C@@H](O)C[C@@]2(C)[C@H]1CC[C@]2(O)C(=O)COC(=O)CCC(=O)[O-].[Na+]", "note": "[PREDNISOLONE SODIUM SUCCINATE]", "Inhibition": 4.81}, {"smiles": "CC[C@]1(O)C[C@@H]2CN(CCc3c([nH]c4ccccc34)[C@@](C(=O)OC)(c3cc4c(cc3OC)N(C)[C@H]3[C@@](O)(C(N)=O)[C@H](O)[C@]5(CC)C=CCN6CC[C@]43[C@@H]65)C2)C1.O=S(=O)(O)O", "note": "[VINDESINE SULFATE]", "Inhibition": 5.43}, {"smiles": "COc1ccccc1N1CCN(CCCNc2cc(=O)n(C)c(=O)n2C)CC1.Cl", "note": "[URAPIDIL HYDROCHLORIDE]", "Inhibition": 19.16}, {"smiles": "CC#C[C@]1(O)CC[C@H]2[C@@H]3CCC4=CC(=O)CCC4=C3[C@@H](c3ccc(N(C)C)cc3)C[C@@]21C", "note": "[MIFEPRISTONE]", "Inhibition": 4.18}, {"smiles": "CC(=O)OCC(=O)[C@@]1(O)CC[C@H]2[C@@H]3CCC4=CC(=O)CC[C@]4(C)[C@H]3[C@@H](O)C[C@@]21C", "note": "[HYDROCORTISONE ACETATE]", "Inhibition": 18.68}, {"smiles": "Nc1ccc2cn[nH]c2c1", "Inhibition": 18.59}, {"smiles": "Cl.O[C@@H](c1cc(C(F)(F)F)nc2c(C(F)(F)F)cccc12)[C@H]1CCCCN1", "Inhibition": 14.68}, {"smiles": "CCOc1cc(CC(=O)N[C@@H](CC(C)C)c2ccccc2N2CCCCC2)ccc1C(=O)O", "note": "[REPAGLINIDE]", "Inhibition": 6.11}, {"smiles": "Cc1occc(=O)c1O", "note": "[MALTOL]", "Inhibition": 10.89}, {"smiles": "CN(CCO)CC(O)Cn1cnc2c1c(=O)n(C)c(=O)n2C.O=C(O)c1cccnc1", "note": "(stereo unspecified) [XANTHINOL NIACINATE]", "Inhibition": 42.72}, {"smiles": "CC(C(=O)O)c1cccc(C(=O)c2ccccc2)c1", "note": "(stereo unspecified) [KETOPROFEN]", "Inhibition": 8.02}, {"smiles": "COc1cc(/C=C/c2ccc(O)cc2)cc(OC)c1", "note": "[PTEROSTILBENE]", "Inhibition": 31.46}, {"smiles": "CC(C)NCC(O)COc1ccc(CCOCC2CC2)cc1.Cl", "note": "(stereo unspecified) [BETAXOLOL HYDROCHLORIDE]", "Inhibition": 19.43}, {"smiles": "COc1ccc2c(c1)c(CC(=O)O)c(C)n2C(=O)c1ccc(Cl)cc1.O", "Inhibition": 6.24}, {"smiles": "CC12CC3CC(C)(C1)CC(N)(C3)C2.Cl", "note": "[MEMANTINE HYDROCHLORIDE]", "Inhibition": 14.28}, {"smiles": "COc1cc2c(cc1OC)C(=O)C(CC1CCN(Cc3ccccc3)CC1)C2.Cl", "note": "(stereo unspecified) [DONEPEZIL HYDROCHLORIDE]", "Inhibition": 10.6}, {"smiles": "Nc1nc(Cl)nc2c1ncn2[C@H]1C[C@H](O)[C@@H](CO)O1", "note": "[CLADRIBINE]", "Inhibition": 16.28}, {"smiles": "CC(C)(C)NC(=O)[C@@H]1C[C@@H]2CCCC[C@@H]2CN1C[C@@H](O)[C@H](Cc1ccccc1)NC(=O)[C@H](CC(N)=O)NC(=O)c1ccc2ccccc2n1.CS(=O)(=O)O", "note": "[SAQUINAVIR MESYLATE]", "Inhibition": 16.83}, {"smiles": "CCCc1cc(=O)[nH]c(=S)[nH]1", "note": "[PROPYLTHIOURACIL]", "Inhibition": 12.96}, {"smiles": "Cc1onc(-c2ccccc2)c1-c1ccc(S(N)(=O)=O)cc1", "note": "[VALDECOXIB]", "Inhibition": 8.96}, {"smiles": "Cc1sc(N)c(C(=O)c2cccc(C(F)(F)F)c2)c1C", "Inhibition": 7.15}, {"smiles": "CN(C)CCCSc1ccccc1NC(=O)/C=C/c1ccccc1.Cl.O", "Inhibition": 20.84}, {"smiles": "CC(C)c1ccc2oc3nc(N)c(C(=O)O)cc3c(=O)c2c1", "note": "[AMLEXANOX]", "Inhibition": 21.06}, {"smiles": "COC(=O)Nc1nc2cc(C(=O)c3ccccc3)ccc2[nH]1", "note": "[MEBENDAZOLE]", "Inhibition": 13.95}, {"smiles": "CCC(=O)O[C@]1(C(=O)CCl)[C@@H](C)C[C@H]2[C@@H]3CCC4=CC(=O)C=C[C@]4(C)[C@@]3(F)[C@@H](O)C[C@@]21C", "note": "[CLOBETASOL PROPIONATE]", "Inhibition": 1.19}, {"smiles": "N[C@@H]1CONC1=O", "note": "[CYCLOSERINE]", "Inhibition": 60.23}, {"smiles": "O=C(O)COCCN1CCN(C(c2ccccc2)c2ccc(Cl)cc2)CC1", "note": "(stereo unspecified) [CETIRIZINE]", "Inhibition": 16.42}, {"smiles": "CC(=O)OCC(=O)C12OC3(CCCC3)OC1CC1C3CCC4=CC(=O)C=CC4(C)C3(F)C(O)CC12C", "note": "(stereo unspecified)", "Inhibition": 17.26}, {"smiles": "CC(CCc1ccccc1)NCC(O)c1ccc(O)c(C(N)=O)c1.Cl", "note": "(stereo unspecified) [LABETALOL HYDROCHLORIDE]", "Inhibition": 15.98}, {"smiles": "COc1cc2nc(N(C)CCCNC(=O)C3CCCO3)nc(N)c2cc1OC", "note": "(stereo unspecified) [ALFUZOSIN]", "Inhibition": 13.27}, {"smiles": "CC1=C(/C=C/C(C)=C/C=C/C(C)=C/C(=O)O)C(C)(C)CCC1", "note": "[TRETINOIN]", "Inhibition": 21.29}, {"smiles": "CCOC(=O)[C@@H](CCc1ccccc1)N[C@@H](C)C(=O)N1CCC[C@H]1C(=O)O.O=C(O)/C=C\\C(=O)O", "Inhibition": 1.23}, {"smiles": "CN1CCN(C2=Nc3ccccc3Oc3ccc(Cl)cc32)CC1.O=C(O)CCC(=O)O", "note": "[LOXAPINE SUCCINATE]", "Inhibition": 4.74}, {"smiles": "CCCN(CCC)S(=O)(=O)c1ccc(C(=O)O)cc1", "note": "[PROBENECID]", "Inhibition": 19.93}, {"smiles": "O=C(O)c1cc2ccccc2c(Cc2c(O)c(C(=O)O)cc3ccccc23)c1O.OCCOCCN1CCN(C(c2ccccc2)c2ccc(Cl)cc2)CC1", "note": "[HYDROXYZINE PAMOATE]", "Inhibition": 23}, {"smiles": "O=C1CN(/N=C/c2ccc(-c3ccc([N+](=O)[O-])cc3)o2)C(=O)[N-]1.[Na+]", "note": "[DANTROLENE SODIUM]", "Inhibition": -2.63}, {"smiles": "O=c1cnn([C@@H]2O[C@H](CO)[C@@H](O)[C@H]2O)c(=O)[nH]1", "note": "[6-AZAURIDINE]", "Inhibition": 9.22}, {"smiles": "N[C@@H](Cc1cc(I)c(Oc2cc(I)c(O)c(I)c2)c(I)c1)C(=O)O", "note": "[LEVOTHYROXINE]", "Inhibition": -9.42}, {"smiles": "CC(=O)OCC(=O)[C@@]1(O)CC[C@H]2[C@@H]3CCC4=CC(=O)CC[C@]4(C)[C@H]3C(=O)C[C@@]21C", "note": "[CORTISONE ACETATE]", "Inhibition": 12.77}, {"smiles": "CC1CNc2c(cccc2S(=O)(=O)N[C@@H](CCCNC(=N)N)C(=O)N2CC[C@@H](C)C[C@@H]2C(=O)O)C1", "note": "(stereo partly specified) [ARGATROBAN]", "Inhibition": 9.28}, {"smiles": "OCc1cccnc1", "note": "[NICOTINYL ALCOHOL]", "Inhibition": 13.13}, {"smiles": "Cl.Clc1ccc2nsnc2c1NC1=NCCN1", "note": "[TIZANIDINE HYDROCHLORIDE]", "Inhibition": 18.39}, {"smiles": "Cl.Cn1c(NCCN(CCO)CCCc2ccc([N+](=O)[O-])cc2)cc(=O)n(C)c1=O", "Inhibition": 9.57}, {"smiles": "C[C@]12C=CC(=O)C=C1CC[C@@H]1[C@@H]2[C@@H](O)C[C@@]2(C)[C@H]1CC[C@]2(O)C(=O)CO", "note": "[PREDNISOLONE]", "Inhibition": 12.94}, {"smiles": "CCC(CO)NCCNC(CC)CO", "note": "(stereo unspecified)", "Inhibition": 12.6}, {"smiles": "Cc1c(C(=O)NN2CCCCC2)nn(-c2ccc(Cl)cc2Cl)c1-c1ccc(I)cc1", "Inhibition": 26.55}, {"smiles": "O=C(O)CCNC(=O)c1ccc(N=Nc2ccc(O)c(C(=O)O)c2)cc1", "Inhibition": 8.38}, {"smiles": "CC(C)(C#N)c1cc(Cn2cncn2)cc(C(C)(C)C#N)c1", "note": "[ANASTROZOLE]", "Inhibition": 1.01}, {"smiles": "Nc1ccn([C@H]2CC[C@@H](CO)O2)c(=O)n1", "note": "[ZALCITABINE]", "Inhibition": 1.57}, {"smiles": "CCOC(=O)C1(CCCCCCOc2ccc(Cl)cc2)CO1", "note": "(stereo not drawn) [rac-ETOMOXIR]", "Inhibition": -3.66}, {"smiles": "O=C(C1CCCCC1)N1CC(=O)N2CCc3ccccc3C2C1", "note": "(stereo unspecified) [PRAZIQUANTEL]", "Inhibition": 14.4}, {"smiles": "CN(C)CCOC(c1ccccc1)c1ccccc1.Cl", "note": "[DIPHENHYDRAMINE HYDROCHLORIDE]", "Inhibition": 6.73}, {"smiles": "COc1cc(C[C@@H](CO)[C@H](CO)Cc2ccc(O)c(OC)c2)ccc1O", "note": "[(+)-SECOISOLARICIRESINOL]", "Inhibition": 4.3}, {"smiles": "Cc1cccc(C)c1NC(=O)C(C)N", "note": "(stereo unspecified) [TOCAINIDE]", "Inhibition": 15.76}, {"smiles": "Cl.c1ccc(CC2=NCCN2)cc1", "note": "[TOLAZOLINE HYDROCHLORIDE]", "Inhibition": 13.23}, {"smiles": "CN1CCN(C2=Nc3cc(F)ccc3Cc3ccccc32)CC1", "note": "[FLUPERLAPINE]", "Inhibition": 16.87}, {"smiles": "CC(C[N+](C)(C)C)OC(N)=O.[Cl-]", "note": "(stereo unspecified) [BETHANECHOL CHLORIDE]", "Inhibition": 6.75}, {"smiles": "Cl.O=C(NCC1CCCCN1)c1cc(OCC(F)(F)F)ccc1OCC(F)(F)F", "note": "(stereo unspecified)", "Inhibition": 10.48}, {"smiles": "COc1ccc(C(=O)NCc2ccc(OCCN(C)C)cc2)cc1OC.Cl", "Inhibition": 10.45}, {"smiles": "Oc1ccc(/C=C/c2cc(O)cc(O)c2)cc1", "note": "[RESVERATROL]", "Inhibition": 10.36}, {"smiles": "COc1ccc(/C=C/C(=O)Nc2ccccc2C(=O)O)cc1OC", "Inhibition": 3.06}, {"smiles": "CNCC[C@@H](Oc1ccccc1C)c1ccccc1.Cl", "note": "[ATOMOXETINE HYDROCHLORIDE]", "Inhibition": 12.55}, {"smiles": "Nc1ncnc2c1ncn2[C@@H]1O[C@H](CO)C[C@@H]1O.O", "Inhibition": 10.96}, {"smiles": "Cc1cccc(Nc2ccncc2S(=O)(=O)NC(=O)NC(C)C)c1", "note": "[TORSEMIDE]", "Inhibition": 3.65}, {"smiles": "NC(=O)N1c2ccccc2CC(=O)c2ccccc21", "note": "[OXCARBAZEPINE]", "Inhibition": 18.9}, {"smiles": "Cc1ccccc1C(OCCN(C)C)c1ccccc1.Cl", "note": "(stereo unspecified) [ORPHENADRINE HYDROCHLORIDE]", "Inhibition": 12.56}, {"smiles": "NS(=O)(=O)Cc1noc2ccccc12", "note": "[ZONISAMIDE]", "Inhibition": 11.37}, {"smiles": "NCC(=O)CCC(=O)O", "note": "[AMINOLEVULINIC ACID]", "Inhibition": 12.16}]}]}
